Results are given in words; binding and its absence hold for the method and conditions named.
Experiments:
[1] = biological target: DREP3 CIDE domain D167R mutant (Drosophila melanogaster) (UniProt Q0E9B7); experiment: SEC-MALS; Superdex 200 10/300, SEC buffer, 0.4 ml min^-1, 25°C, protein at 10 mg ml^-1; wild type in 50 mM, 500 mM and 2 M NaCl; both purified
[2] = biological target: DREP3 CIDE domain D167R mutant (Drosophila melanogaster) (UniProt Q0E9B7); experiment: SEC; Superdex 200 Increase 10/300 GL, 20 mM Tris-HCl pH 7.9, 500 mM NaCl; also series at 1, 5 and 15 mg ml^-1 protein and at four NaCl concentrations; both purified

B1: DREP3 CIDE domain D167R mutant (domain or fragment, UniProt Q0E9B7 112-195)
chain: FAQLDNSKPFKIKDITRNIRKAVVATTLSELRTKVSLKFERAQPAIHLDCDGTEVRDEEYFSTLEPNAELIAVFPGEQWRDPSD
With B1 the binding [1] was “no binding (tested: 10 mg ml^-1)” and the binding [2] was “no binding”.

Reference: paper PMC8647176, “Helical filament structure of the DREP3 CIDE domain reveals a unified mechanism of CIDE-domain assembly” (Acta Crystallographica. Section D, Structural Biology, 2021)
